The target of assay [1] is T1, Procollagen lysyl hydroxylase 1 (PLOD1) (human (endogenous in patient-derived GSCs)) (UniProt Q02809).
T1 sequence: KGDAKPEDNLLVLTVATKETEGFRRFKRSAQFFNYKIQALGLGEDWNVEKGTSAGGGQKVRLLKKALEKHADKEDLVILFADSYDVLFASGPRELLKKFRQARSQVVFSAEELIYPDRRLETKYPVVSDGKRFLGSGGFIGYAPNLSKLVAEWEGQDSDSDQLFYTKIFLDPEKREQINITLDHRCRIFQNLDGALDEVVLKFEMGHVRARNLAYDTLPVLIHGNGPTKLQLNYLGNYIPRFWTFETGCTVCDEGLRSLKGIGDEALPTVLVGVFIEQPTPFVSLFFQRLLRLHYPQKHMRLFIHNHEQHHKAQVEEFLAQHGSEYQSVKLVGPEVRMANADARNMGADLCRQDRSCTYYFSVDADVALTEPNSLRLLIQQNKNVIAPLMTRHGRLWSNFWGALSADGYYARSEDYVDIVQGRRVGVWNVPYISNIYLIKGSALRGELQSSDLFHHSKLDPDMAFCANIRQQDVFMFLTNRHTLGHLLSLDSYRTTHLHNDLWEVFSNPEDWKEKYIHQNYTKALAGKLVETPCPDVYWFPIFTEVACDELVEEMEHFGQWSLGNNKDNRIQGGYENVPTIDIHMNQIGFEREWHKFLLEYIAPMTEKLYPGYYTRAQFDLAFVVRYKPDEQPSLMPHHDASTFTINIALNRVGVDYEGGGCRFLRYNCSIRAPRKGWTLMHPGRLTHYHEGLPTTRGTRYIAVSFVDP
The experiment in a line: co-IP; total cell lysates in RIPA lysis buffer with proteasome inhibitor; immunoprecipitated at 4 °C for 12 h with a rabbit monoclonal antibody against PLOD1 or a mouse monoclonal antibody against IκBα prebound to protein A-Sepharose 4B beads; isotype antibodies as controls; eluates analysed by western blotting.

The chains behind the UniProt entries cited, without tags or fusion partners.
UniProt P25963: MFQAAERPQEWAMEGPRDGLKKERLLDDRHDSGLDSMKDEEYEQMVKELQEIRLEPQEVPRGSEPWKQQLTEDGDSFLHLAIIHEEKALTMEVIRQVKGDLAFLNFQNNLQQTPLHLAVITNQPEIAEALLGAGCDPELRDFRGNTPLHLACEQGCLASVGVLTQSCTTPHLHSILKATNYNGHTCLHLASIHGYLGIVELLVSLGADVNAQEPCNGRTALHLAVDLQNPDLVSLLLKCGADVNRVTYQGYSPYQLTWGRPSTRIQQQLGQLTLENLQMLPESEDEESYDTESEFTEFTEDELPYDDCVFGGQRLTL

The target of assay [2] is IκBα (human (endogenous in patient-derived GSCs)) (UniProt P25963). Described as above.

These are yes or no findings as the source states them, for the method shown. In cells and extracts the contact can be indirect. Some entries that bind do so weakly or less than the wild type.

This passage reports binding results from paper PMC7906902.

For IκBα (from UniProt P25963 1-317), the binding result in assay [1] is listed as “binds”.

B1: Procollagen lysyl hydroxylase 1 (PLOD1) (enzyme, UniProt Q02809 19-727)
chain: KGDAKPEDNLLVLTVATKETEGFRRFKRSAQFFNYKIQALGLGEDWNVEKGTSAGGGQKVRLLKKALEKHADKEDLVILFADSYDVLFASGPRELLKKFRQARSQVVFSAEELIYPDRRLETKYPVVSDGKRFLGSGGFIGYAPNLSKLVAEWEGQDSDSDQLFYTKIFLDPEKREQINITLDHRCRIFQNLDGALDEVVLKFEMGHVRARNLAYDTLPVLIHGNGPTKLQLNYLGNYIPRFWTFETGCTVCDEGLRSLKGIGDEALPTVLVGVFIEQPTPFVSLFFQRLLRLHYPQKHMRLFIHNHEQHHKAQVEEFLAQHGSEYQSVKLVGPEVRMANADARNMGADLCRQDRSCTYYFSVDADVALTEPNSLRLLIQQNKNVIAPLMTRHGRLWSNFWGALSADGYYARSEDYVDIVQGRRVGVWNVPYISNIYLIKGSALRGELQSSDLFHHSKLDPDMAFCANIRQQDVFMFLTNRHTLGHLLSLDSYRTTHLHNDLWEVFSNPEDWKEKYIHQNYTKALAGKLVETPCPDVYWFPIFTEVACDELVEEMEHFGQWSLGNNKDNRIQGGYENVPTIDIHMNQIGFEREWHKFLLEYIAPMTEKLYPGYYTRAQFDLAFVVRYKPDEQPSLMPHHDASTFTINIALNRVGVDYEGGGCRFLRYNCSIRAPRKGWTLMHPGRLTHYHEGLPTTRGTRYIAVSFVDP
In the case of B1, the binding result in assay [2] is recorded as “binds”.
